Experimental data from the supplement of paper PMC12823440, “Inhibitors supercharge kinase turnover through native proteolytic circuits” (Nature, 2025).
Counter-ions that a name gives are not always drawn. This is one part of the list. Hit calls seldom repeat between salt and free forms of one compound.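 In K562 cells expressing nanoluciferase-fused kinases, luminescence was recorded at 4 h intervals between 2 and 18 h, normalized as percent of control with DMSO at 100% and a positive control at 0%. A significant (2 sigma) signal drop marks a time point as decreased. The authors' rule for a hit is not shown and takes in more than the number of time points.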

Sequences of proteins named here, by UniProt entry; tags and fusion partners are left off. A change or cut given only in a name is not applied to a line headed by its entry.
UniProt Q16288, whole entry, looked up: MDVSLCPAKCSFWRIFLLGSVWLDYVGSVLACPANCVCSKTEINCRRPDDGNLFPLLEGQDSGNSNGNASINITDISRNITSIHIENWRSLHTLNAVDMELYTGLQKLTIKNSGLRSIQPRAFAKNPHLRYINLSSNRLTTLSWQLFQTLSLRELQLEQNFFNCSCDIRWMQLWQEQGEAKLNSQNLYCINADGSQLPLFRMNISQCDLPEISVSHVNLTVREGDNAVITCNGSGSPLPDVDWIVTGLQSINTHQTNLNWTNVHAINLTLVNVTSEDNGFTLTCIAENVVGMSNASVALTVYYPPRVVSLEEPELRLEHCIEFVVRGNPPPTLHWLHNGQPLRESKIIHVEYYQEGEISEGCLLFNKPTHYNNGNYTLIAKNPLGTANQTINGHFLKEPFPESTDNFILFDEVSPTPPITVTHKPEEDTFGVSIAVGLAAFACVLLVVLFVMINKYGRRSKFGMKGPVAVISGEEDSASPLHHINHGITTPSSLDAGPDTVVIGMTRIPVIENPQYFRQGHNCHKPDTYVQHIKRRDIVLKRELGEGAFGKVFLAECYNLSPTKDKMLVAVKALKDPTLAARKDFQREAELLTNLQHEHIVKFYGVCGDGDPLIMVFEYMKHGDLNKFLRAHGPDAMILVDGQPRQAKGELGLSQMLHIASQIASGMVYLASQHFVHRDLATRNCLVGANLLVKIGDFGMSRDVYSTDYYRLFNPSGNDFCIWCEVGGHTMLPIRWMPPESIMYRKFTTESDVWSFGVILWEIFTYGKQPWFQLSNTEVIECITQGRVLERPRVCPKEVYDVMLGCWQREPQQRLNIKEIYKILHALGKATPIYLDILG
UniProt O96013: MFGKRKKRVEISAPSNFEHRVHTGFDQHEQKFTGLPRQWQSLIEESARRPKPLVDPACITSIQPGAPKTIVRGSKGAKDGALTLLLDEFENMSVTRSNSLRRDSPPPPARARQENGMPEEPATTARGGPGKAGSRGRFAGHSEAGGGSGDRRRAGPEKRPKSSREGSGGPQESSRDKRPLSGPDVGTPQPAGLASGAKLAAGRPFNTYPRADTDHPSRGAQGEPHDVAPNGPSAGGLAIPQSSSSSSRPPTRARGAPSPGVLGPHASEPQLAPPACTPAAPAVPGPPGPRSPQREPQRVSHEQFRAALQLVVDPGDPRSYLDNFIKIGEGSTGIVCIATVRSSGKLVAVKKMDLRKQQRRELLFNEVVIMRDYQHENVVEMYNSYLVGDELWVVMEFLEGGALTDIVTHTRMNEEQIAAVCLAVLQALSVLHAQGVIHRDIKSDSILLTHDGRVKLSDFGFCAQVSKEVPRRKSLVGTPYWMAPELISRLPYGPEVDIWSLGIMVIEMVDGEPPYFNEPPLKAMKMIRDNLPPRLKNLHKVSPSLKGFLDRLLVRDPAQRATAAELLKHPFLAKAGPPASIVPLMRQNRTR

These compounds were tested against NTRK3 (UniProt Q16288) (assay: kinase-Nluc reporter destabilization hit call (1 = scored as downregulated) (binary); higher = compound decreases kinase abundance). Conditions: K562; 2-18 h.

kinase-Nluc reporter destabilization hit call, inactive:
COc1ccc([C@@H]2CC(=O)c3c(O)cc(O)cc3O2)cc1O [Hesperetin] (10 µM) 0
N#Cc1c(-c2ccccc2)cc(-c2cc(Br)ccc2O)[nH]c1=O (10 µM) 0
Cc1c(CN2CCN(C(=O)[C@H](C)O)CC2)sc2c(N3CCOCC3)nc(-c3cnc(N)nc3)nc12 [Apitolisib] (10 µM) 0
NC1(Cc2ccc(Cl)cc2)CCN(c2ncnc3[nH]ccc23)CC1 (10 µM) 0
O=C(/C=C/c1ccc(O)c(O)c1)c1ccc(O[C@@H]2O[C@H](CO)[C@@H](O)[C@H](O)[C@H]2O)c(O)c1O [Marein] (10 µM) 0
CN(CC(=O)N(Cc1ccc(C2CCCCC2)cc1)c1ccc(C(=O)O)cc1)S(=O)(=O)c1c(F)c(F)c(F)c(F)c1F (2.5 µM) 0
CC(C)NC(=O)N1CC[C@H](NC2=Nc3cc(F)ccc3N(CC(F)F)c3ccc(Cl)cc32)C1 (10 µM) 0

The compounds below were run against PAK4 (UniProt O96013) in the same assay as above. Conditions: K562; 2-18 h.

kinase-Nluc reporter destabilization hit call, inactive:
Cn1cc(Nc2nccc(N3C[C@H]4CC[C@@H](C3)N4C(=O)[C@@H]3CC3(F)F)n2)cn1 (10 µM) 0
CC(C)=CC(=O)CCC(=O)N1CCN(Cc2cc3nc(-c4cccc5[nH]ncc45)nc(N4CCOCC4)c3s2)CC1 (10 µM) 0
CN(C)CCN(Cc1ccc(Cl)cc1)c1ccccn1 [Chloropyramine hydrochloride] (10 µM) 0
COc1cc([N+](=O)[O-])ccc1S(=O)(=O)N1C[C@@H](CN2CCN(c3ccccn3)CC2)[C@H](c2cccc(F)c2)C1 (relative stereo) (10 µM) 0
Cc1noc(C)c1-c1ccc(-c2cc(C(N)=O)c(NC(N)=O)s2)c(O[C@H]2CCNC2)c1 (10 µM) 0
CC(C)(C)NC(=O)c1cncn1C1CCN(c2ccc(-c3nnc(C(F)(F)F)o3)cn2)CC1 (10 µM) 0
COc1cccc(-n2c(=O)[nH]c3cc(Cl)n(-c4ccc(-c5cccc(OC)c5O)cc4)c3c2=O)c1 (2.5 µM) 0
O=C(Nc1cccnc1)c1cc(C(=O)c2c(F)cccc2Br)c[nH]1 (10 µM) 0
O=C(Nc1cc(Oc2cc(F)c(NC(=O)C3(C(=O)Nc4ccc(F)cc4)CC3)cc2F)ccn1)C1CC1 [Altiratinib] (10 µM) 0
O=C1NC(=O)C(=Cc2ccc(-c3ccc(F)cc3)o2)S1 (stereo in doubt) (10 µM) 0
O=C(NC(NC(=S)Nc1ccc(F)c([N+](=O)[O-])c1)C(Cl)(Cl)Cl)C(c1ccccc1)c1ccccc1 (configuration not stated) (10 µM) 0
Nc1ncnc2c1ncn2[C@@H]1O[C@H](CO)C[C@H]1O [Cordycepin] (10 µM) 0
CC(C)(NS(=O)(=O)c1ccc2c(Cl)cnc(N=C(N)N)c2c1)C(=O)O (10 µM) 0
COc1cc2ncnc(Nc3cccc(Cl)c3)c2cc1OC (10 µM) 0
CCOc1ccc(C(=O)Nc2ncc([N+](=O)[O-])s2)cc1 (10 µM) 0
CC(C)CN[C@H]1CS(=O)(=O)C[C@@H]1S(=O)(=O)c1ccc(Cl)cc1 (10 µM) 0
CCn1c(=O)c(-c2ccc(-c3cncs3)cc2Cl)cc2cnc(Nc3ccc(N4CCN(C)CC4)cc3)nc21 (2.5 µM) 0
C[C@]1(O)CCC[C@@H]1n1c(=O)c(C(F)F)cc2cnc(NC3CCN(S(C)(=O)=O)CC3)nc21 (10 µM) 0
COc1c(NC(=O)C(=O)c2ccc(OCCN3CCOCC3)c3ccccc23)cc(C(C)(C)C)cc1NS(C)(=O)=O (2.5 µM) 0
COc1cc(S(C)(=O)=O)ccc1Nc1nc2ccc(-c3ccc(NC(=O)[C@H](C)c4ccc(F)cc4)cc3)cn2n1 [Empesertib] (10 µM) 0
Nc1cc(Nc2ccc(S(N)(=O)=O)cc2)ncn1 (10 µM) 0
O=C(O)c1cc(O)ccc1O [2,5-Dihydroxybenzoic acid] (10 µM) 0
OCCNC1CCCc2c1[nH]c1ccc(-c3ccccc3)cc21 (configuration not stated) (2.5 µM) 0
CC(C)CC1(O)CCN(C(=O)c2ccc(NS(=O)(=O)c3cccc4nccnc34)cc2)CC1 (10 µM) 0
CNC(=O)c1ccc(-c2cnc3cnc(C(=O)N(C)c4ccc(Cl)cc4)cn23)cc1 (2.5 µM) 0

Arranged by heavy-atom count (smallest number first): 3 of the compounds above.
kinase-Nluc reporter destabilization hit call, inactive:
O=C(Nc1cccnc1)c1cc(C(=O)c2c(F)cccc2Br)c[nH]1 (10 µM) 0
Cn1cc(Nc2nccc(N3C[C@H]4CC[C@@H](C3)N4C(=O)[C@@H]3CC3(F)F)n2)cn1 (10 µM) 0
COc1cc(S(C)(=O)=O)ccc1Nc1nc2ccc(-c3ccc(NC(=O)[C@H](C)c4ccc(F)cc4)cc3)cn2n1 [Empesertib] (10 µM) 0
